For part of these data: Where cells or extracts were used, other partners may take part. For part of these data: A negative result means that nothing was seen under these conditions. For part of these data: Protein sequences can lack the tags named with them. For part of these data: Construct, isoform or probe ends are uncertain for at least one entry. For part of these data: The comparison behind a weaker result is the experiment's own reference, which may not be listed here. For part of these data: At least one verdict rests on a figure or table, not on a statement of the authors. For part of these data: The direction of at least one scale is not stated here.
Columns and labels:
Assay in all cases: EMSA
LARP6 full size (human) = LARP6 full size (human) (UniProt Q9BRS8); conditions: protein in an extract; residues 1-491
[1] = biological target: LARP6 full size K123A (human) (UniProt Q9BRS8); conditions: protein in an extract; residues 1-491
[2] = biological target: LARP6 full size N122A (human) (UniProt Q9BRS8); conditions: protein in an extract; residues 1-491
[3] = biological target: LARP6 full size NK/AA N122A,K123A (human) (UniProt Q9BRS8); conditions: protein in an extract; residues 1-491
[4] = biological target: LARP6 full size R121A (human) (UniProt Q9BRS8); conditions: protein in an extract; residues 1-491
[5] = biological target: LARP6 full size RK/AA R121A,K123A (human) (UniProt Q9BRS8); conditions: protein in an extract; residues 1-491
[6] = biological target: LARP6 full size RN/AA R121A,N122A (human) (UniProt Q9BRS8); conditions: protein in an extract; residues 1-491
[7] = biological target: La-domain + 26 random aa (Fig 4B lane 4) (human) (UniProt Q9BRS8); conditions: binding increased; protein in an extract
La-domain K123A (human) = La-domain K123A (human) (UniProt Q9BRS8); conditions: protein in an extract; residues 81-182
La-domain N122A (human) = La-domain N122A (human) (UniProt Q9BRS8); conditions: protein in an extract; residues 81-182
La-domain R121A (human) = La-domain R121A (human) (UniProt Q9BRS8); conditions: protein in an extract; residues 81-182
[8] = biological target: La-domain delta16 (human) (UniProt Q9BRS8); conditions: protein in an extract; residues 81-166
La-domain delta8 (human) = La-domain delta8 (human) (UniProt Q9BRS8); conditions: protein in an extract; residues 81-174
[9] = biological target: La-module RK/AA R121A,K123A (human) (UniProt Q9BRS8); conditions: drastically reduced
[10] = biological target: T1, RRM domain, HEK293 (human) (UniProt Q9BRS8); conditions: protein in an extract; residues 183-298
T1 sequence (looked up): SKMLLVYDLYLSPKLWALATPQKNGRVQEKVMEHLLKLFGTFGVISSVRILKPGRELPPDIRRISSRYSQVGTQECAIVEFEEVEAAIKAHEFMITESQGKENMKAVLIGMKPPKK

[11] = biological target: truncated La-domain + random sequence 1 (Fig 4B lane 2) (human) (UniProt Q9BRS8); conditions: partially restored; protein in an extract
[12] = biological target: truncated La-domain + random sequence 2 (Fig 4B lane 3) (human) (UniProt Q9BRS8); conditions: partially restored; protein in an extract
[13] = biological target: La-domain, HEK293 (human) (UniProt Q9BRS8); conditions: protein in an extract; residues 81-182

Work on “CACAAGGAGUCUGCAUGUCUAAGUGCUAGACAUGCUCAGCUUUGUG [α2(I) 5'SL]” yielded a binding signal (% (reference)) (LARP6 full size (human)) of 100, a binding signal (% of WT LARP6 (about 50% reduction)) [1] of 50 and a binding signal (% of WT LARP6 (about 50% reduction)) [2] of 50. The binding result [3] was “binds more weakly”, the binding signal (% of WT LARP6 (about 50% reduction)) [4] was 50 and the binding result [5] was “binds more weakly”. “CACAAGGAGUCUGCAUGUCUAAGUGCUAGACAUGCUCAGCUUUGUG [α2(I) 5'SL]”: binds more weakly [6]; binds [7]; no binding (La-domain K123A (human)). “CACAAGGAGUCUGCAUGUCUAAGUGCUAGACAUGCUCAGCUUUGUG [α2(I) 5'SL]”: no binding (La-domain N122A (human)); no binding (La-domain R121A (human)); no binding [8]. “CACAAGGAGUCUGCAUGUCUAAGUGCUAGACAUGCUCAGCUUUGUG [α2(I) 5'SL]”: no binding (La-domain delta8 (human)); binds more weakly [9]; no binding [10]. “CACAAGGAGUCUGCAUGUCUAAGUGCUAGACAUGCUCAGCUUUGUG [α2(I) 5'SL]”: binds more weakly [11]; binds more weakly [12].

“CCACAAAGAGUCUACAUGUCUAGGGUCUAGACAUGUUCAGCUUUGUGG [α1(I) 5'SL]”: no binding (La-domain K123A (human)); no binding (La-domain N122A (human)); no binding (La-domain R121A (human)). “CCACAAAGAGUCUACAUGUCUAGGGUCUAGACAUGUUCAGCUUUGUGG [α1(I) 5'SL]”: binds [13].
